Assay results published in publication PMC11414387.

Sequences of proteins named here, by UniProt entry; tags and fusion partners are left off.
UniProt Q15208: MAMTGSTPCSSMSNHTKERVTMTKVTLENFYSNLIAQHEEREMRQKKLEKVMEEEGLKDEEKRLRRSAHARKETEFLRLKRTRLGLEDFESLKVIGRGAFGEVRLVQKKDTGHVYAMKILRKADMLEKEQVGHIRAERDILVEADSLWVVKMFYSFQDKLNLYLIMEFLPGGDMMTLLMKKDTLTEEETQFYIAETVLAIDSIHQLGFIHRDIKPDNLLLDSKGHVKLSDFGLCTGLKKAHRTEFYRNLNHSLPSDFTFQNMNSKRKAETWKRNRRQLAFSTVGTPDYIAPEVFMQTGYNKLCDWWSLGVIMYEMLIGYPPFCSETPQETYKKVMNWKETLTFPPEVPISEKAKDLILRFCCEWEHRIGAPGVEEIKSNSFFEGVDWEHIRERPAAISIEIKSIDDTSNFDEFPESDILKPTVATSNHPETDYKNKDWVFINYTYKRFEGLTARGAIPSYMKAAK
UniProt P35222: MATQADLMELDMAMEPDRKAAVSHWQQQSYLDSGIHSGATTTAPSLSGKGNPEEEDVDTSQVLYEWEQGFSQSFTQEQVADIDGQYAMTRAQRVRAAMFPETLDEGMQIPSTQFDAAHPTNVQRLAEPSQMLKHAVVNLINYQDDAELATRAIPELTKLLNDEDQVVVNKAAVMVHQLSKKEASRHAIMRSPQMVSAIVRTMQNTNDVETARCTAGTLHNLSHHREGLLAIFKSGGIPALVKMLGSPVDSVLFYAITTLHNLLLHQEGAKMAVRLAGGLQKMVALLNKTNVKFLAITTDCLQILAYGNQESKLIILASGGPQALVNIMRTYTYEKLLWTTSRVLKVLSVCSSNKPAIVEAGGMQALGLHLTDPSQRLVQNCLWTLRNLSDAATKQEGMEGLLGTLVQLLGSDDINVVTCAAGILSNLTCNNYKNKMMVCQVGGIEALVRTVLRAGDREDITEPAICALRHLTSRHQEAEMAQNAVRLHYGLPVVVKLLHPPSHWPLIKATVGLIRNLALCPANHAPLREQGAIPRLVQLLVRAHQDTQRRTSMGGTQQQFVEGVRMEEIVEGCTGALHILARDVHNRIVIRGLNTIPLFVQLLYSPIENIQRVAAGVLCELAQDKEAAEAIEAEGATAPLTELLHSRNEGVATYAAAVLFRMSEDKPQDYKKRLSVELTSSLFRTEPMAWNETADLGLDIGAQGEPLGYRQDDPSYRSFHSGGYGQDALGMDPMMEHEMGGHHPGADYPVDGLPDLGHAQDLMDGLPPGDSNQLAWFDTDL

Assays:
[1] = molecular target: NDR1 (bait of the mass spectrometry analysis) (UniProt Q15208); assay: affinity purification with mass spectrometry; MS analysis of the molecules bound to NDR1 and β-catenin; protein gel strips digested, LC-MS/MS (timsTOF pro), Mascot search
[2] = molecular target: β-catenin (bait of the mass spectrometry analysis) (UniProt P35222); assay: as above

B1: E3 ubiquitin ligase FBXO11 (found by mass spectrometry) (enzyme, UniProt Q86XK2 1-927)
chain: MNSVRAANRRPRRVSRPRPVQQQQQQPPQQPPPQPPQQQPPQQQPPPPPQQQQQQQPPPPPPPPPPLPQERNNVGERDDDVPADMVAEESGPGAQNSPYQLRRKTLLPKRTACPTKNSMEGASTSTTENFGHRAKRARVSGKSQDLSAAPAEQYLQEKLPDEVVLKIFSYLLEQDLCRAACVCKRFSELANDPILWKRLYMEVFEYTRPMMHPEPGKFYQINPEEYEHPNPWKESFQQLYKGAHVKPGFAEHFYSNPARYKGRENMLYYDTIEDALGGVQEAHFDGLIFVHSGIYTDEWIYIESPITMIGAAPGKVADKVIIENTRDSTFVFMEGSEDAYVGYMTIRFNPDDKSAQHHNAHHCLEITVNCSPIIDHCIIRSTCTVGSAVCVSGQGACPTIKHCNISDCENVGLYITDHAQGIYEDNEISNNALAGIWVKNHGNPIIRRNHIHHGRDVGVFTFDHGMGYFESCNIHRNRIAGFEVKAYANPTVVRCEIHHGQTGGIYVHEKGRGQFIENKIYANNFAGVWITSNSDPTIRGNSIFNGNQGGVYIFGDGRGLIEGNDIYGNALAGIQIRTNSCPIVRHNKIHDGQHGGIYVHEKGQGVIEENEVYSNTLAGVWVTTGSTPVLRRNRIHSGKQVGVYFYDNGHGVLEDNDIYNHMYSGVQIRTGSNPKIRRNKIWGGQNGGILVYNSGLGCIEDNEIFDNAMAGVWIKTDSNPTLRRNKIHDGRDGGICIFNGGRGLLEENDIFRNAQAGVLISTNSHPILRKNRIFDGFAAGIEITNHATATLEGNQIFNNRFGGLFLASGVNVTMKDNKIMNNQDAIEKAVSRGQCLYKISSYTSYPMHDFYRCHTCNTTDRNAICVNCIKKCHQGHDVEFIRHDRFFCDCGAGTLSNPCTLAGEPTHDTDTLYDSAPPIESNTLQHN
Question: B1 was tested. Which binding [1] did it give?
Answer: binds

Question: And the binding [2]?
Answer: binds

No constants are given. Whether binding was seen depends on the method and setting. Binding seen in cells or lysates may run through a third protein. Here binding means that the protein was enriched with, or labelled near, the bait; the list need not be complete.
